Data reported in paper PMC8213057, “Targeting ALK2: An Open Science Approach to Developing Therapeutics for the Treatment of Diffuse Intrinsic Pontine Glioma” (Journal of Medicinal Chemistry, 2020).

The chains behind the UniProt entries cited, without tags or fusion partners. Where a name states a change or a piece, a line headed by the entry shows the natural chain unless it says otherwise. Residues count along the entry.
UniProt Q05513: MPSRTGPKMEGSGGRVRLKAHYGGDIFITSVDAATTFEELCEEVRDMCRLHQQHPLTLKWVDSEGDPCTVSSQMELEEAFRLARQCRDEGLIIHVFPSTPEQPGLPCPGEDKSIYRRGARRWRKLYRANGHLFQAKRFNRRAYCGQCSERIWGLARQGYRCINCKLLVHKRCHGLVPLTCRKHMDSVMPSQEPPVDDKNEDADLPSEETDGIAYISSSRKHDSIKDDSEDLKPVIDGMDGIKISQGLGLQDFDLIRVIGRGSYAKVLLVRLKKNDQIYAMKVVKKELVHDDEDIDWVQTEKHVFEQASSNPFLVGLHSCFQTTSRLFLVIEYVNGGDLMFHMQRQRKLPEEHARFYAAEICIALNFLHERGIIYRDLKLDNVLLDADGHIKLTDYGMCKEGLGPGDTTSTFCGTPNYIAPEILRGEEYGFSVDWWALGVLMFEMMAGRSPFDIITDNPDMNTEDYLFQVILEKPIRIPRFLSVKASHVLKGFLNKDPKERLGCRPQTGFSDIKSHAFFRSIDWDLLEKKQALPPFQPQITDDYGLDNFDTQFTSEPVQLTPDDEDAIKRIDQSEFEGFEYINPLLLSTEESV
UniProt P35916, 25-1363: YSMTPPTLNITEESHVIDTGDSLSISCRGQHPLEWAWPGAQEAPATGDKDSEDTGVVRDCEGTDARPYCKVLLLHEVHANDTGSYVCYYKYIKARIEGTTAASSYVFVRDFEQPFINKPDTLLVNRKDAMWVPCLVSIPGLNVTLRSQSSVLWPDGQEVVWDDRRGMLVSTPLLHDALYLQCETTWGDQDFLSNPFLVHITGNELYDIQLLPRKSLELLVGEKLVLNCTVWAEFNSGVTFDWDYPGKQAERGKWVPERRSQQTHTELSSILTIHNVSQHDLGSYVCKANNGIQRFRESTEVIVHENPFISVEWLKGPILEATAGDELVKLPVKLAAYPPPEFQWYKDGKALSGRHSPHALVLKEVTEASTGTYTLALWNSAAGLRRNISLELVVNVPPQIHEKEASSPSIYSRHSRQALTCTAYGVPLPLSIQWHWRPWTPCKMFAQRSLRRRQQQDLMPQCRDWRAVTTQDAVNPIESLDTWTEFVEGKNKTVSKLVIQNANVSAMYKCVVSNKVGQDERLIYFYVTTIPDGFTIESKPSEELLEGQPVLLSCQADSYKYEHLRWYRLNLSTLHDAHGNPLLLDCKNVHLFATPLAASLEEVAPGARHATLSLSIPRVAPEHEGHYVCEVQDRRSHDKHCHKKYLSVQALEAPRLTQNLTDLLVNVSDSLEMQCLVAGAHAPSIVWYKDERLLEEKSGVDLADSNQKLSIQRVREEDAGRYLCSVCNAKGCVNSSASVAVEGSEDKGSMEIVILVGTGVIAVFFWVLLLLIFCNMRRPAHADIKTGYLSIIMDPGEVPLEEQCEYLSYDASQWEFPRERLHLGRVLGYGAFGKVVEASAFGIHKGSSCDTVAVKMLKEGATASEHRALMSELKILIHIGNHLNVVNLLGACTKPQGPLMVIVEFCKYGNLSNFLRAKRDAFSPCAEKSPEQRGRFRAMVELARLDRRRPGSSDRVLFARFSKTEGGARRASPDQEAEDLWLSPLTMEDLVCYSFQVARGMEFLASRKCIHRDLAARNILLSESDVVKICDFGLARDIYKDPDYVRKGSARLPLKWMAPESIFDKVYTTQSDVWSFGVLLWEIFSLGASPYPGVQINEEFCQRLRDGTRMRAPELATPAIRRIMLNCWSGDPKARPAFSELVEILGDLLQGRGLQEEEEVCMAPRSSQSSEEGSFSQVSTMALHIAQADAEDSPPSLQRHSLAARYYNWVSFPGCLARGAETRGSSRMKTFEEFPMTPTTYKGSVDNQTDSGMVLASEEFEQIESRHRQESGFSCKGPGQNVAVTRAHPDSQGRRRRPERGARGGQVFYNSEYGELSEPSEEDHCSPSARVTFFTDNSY
UniProt Q9P1W9: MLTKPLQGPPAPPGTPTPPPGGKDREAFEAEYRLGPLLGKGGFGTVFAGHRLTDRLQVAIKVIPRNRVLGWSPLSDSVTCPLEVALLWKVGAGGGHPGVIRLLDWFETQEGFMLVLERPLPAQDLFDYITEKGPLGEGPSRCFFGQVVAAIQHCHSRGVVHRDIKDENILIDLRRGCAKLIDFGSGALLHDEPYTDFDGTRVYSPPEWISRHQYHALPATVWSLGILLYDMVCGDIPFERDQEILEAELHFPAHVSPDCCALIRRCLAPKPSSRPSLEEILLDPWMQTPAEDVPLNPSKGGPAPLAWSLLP
UniProt Q13237: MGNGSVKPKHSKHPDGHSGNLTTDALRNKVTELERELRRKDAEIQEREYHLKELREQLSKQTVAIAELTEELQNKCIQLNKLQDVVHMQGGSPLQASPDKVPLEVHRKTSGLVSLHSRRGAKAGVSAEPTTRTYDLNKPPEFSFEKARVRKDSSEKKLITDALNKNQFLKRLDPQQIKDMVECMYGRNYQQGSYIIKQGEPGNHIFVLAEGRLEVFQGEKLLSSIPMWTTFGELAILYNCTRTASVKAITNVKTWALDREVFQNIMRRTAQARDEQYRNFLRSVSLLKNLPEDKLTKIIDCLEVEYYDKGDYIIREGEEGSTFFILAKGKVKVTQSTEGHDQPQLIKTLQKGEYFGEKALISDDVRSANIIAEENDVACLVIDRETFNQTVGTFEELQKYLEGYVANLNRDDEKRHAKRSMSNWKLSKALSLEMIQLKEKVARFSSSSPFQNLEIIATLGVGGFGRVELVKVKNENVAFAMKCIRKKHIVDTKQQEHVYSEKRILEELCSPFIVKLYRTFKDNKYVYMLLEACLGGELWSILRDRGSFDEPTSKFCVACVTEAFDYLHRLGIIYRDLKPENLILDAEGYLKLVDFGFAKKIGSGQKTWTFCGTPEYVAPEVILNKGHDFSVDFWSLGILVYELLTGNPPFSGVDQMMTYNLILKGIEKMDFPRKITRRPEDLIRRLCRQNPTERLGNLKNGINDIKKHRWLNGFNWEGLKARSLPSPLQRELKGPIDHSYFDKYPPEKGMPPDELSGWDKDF
UniProt P11362, 22-822: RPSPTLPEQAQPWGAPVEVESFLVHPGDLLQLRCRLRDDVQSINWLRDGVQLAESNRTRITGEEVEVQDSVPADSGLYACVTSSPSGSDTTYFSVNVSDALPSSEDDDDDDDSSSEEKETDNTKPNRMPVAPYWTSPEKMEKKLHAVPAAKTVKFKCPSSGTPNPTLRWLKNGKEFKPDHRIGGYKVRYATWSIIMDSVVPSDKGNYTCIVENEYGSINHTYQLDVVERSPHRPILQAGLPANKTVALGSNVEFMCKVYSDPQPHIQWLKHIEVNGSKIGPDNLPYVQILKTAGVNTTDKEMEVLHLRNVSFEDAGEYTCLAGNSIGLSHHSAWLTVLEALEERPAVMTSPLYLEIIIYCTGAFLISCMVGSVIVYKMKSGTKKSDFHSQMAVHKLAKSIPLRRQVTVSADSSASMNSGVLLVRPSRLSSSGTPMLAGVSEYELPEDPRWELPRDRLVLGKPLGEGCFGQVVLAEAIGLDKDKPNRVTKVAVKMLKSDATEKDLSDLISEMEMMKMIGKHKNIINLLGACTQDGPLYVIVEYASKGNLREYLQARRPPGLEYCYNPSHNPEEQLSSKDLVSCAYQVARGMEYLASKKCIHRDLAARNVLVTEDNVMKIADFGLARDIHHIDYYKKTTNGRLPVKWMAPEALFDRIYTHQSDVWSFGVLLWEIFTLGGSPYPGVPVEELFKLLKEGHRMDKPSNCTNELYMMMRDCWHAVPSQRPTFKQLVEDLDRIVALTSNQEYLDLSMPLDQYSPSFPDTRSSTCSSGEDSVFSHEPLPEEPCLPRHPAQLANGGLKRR
UniProt Q9NQU5: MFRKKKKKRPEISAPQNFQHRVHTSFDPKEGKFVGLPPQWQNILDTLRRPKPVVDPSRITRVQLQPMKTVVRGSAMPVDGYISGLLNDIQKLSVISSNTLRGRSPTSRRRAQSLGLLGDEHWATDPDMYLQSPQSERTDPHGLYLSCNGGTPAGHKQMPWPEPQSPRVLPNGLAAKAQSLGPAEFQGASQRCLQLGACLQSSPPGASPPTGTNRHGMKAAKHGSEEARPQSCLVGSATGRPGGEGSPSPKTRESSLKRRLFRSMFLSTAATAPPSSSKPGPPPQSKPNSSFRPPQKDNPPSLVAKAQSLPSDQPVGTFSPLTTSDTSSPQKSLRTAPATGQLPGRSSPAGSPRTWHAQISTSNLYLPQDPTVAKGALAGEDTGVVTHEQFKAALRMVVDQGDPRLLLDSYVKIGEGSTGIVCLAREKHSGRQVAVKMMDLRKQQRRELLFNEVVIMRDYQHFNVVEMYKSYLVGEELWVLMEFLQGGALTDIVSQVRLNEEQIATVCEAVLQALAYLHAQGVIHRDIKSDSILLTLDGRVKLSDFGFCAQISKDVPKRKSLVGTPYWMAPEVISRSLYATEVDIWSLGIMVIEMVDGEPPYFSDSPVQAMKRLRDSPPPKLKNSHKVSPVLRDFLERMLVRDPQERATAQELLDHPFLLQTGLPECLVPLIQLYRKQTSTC
UniProt Q8N5S9: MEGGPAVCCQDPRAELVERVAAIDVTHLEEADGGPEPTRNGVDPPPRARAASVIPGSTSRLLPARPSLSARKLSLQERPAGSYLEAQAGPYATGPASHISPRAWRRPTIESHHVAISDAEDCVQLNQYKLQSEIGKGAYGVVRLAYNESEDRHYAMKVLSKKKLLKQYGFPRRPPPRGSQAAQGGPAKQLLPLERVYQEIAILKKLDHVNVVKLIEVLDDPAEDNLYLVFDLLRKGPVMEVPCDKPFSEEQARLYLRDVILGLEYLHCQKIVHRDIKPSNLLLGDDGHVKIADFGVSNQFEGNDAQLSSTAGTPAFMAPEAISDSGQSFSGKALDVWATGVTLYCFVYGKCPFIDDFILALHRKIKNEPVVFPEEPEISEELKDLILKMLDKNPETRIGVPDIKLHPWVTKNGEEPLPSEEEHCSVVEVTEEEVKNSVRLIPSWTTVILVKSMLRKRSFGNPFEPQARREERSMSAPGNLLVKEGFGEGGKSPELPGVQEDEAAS
UniProt O75116: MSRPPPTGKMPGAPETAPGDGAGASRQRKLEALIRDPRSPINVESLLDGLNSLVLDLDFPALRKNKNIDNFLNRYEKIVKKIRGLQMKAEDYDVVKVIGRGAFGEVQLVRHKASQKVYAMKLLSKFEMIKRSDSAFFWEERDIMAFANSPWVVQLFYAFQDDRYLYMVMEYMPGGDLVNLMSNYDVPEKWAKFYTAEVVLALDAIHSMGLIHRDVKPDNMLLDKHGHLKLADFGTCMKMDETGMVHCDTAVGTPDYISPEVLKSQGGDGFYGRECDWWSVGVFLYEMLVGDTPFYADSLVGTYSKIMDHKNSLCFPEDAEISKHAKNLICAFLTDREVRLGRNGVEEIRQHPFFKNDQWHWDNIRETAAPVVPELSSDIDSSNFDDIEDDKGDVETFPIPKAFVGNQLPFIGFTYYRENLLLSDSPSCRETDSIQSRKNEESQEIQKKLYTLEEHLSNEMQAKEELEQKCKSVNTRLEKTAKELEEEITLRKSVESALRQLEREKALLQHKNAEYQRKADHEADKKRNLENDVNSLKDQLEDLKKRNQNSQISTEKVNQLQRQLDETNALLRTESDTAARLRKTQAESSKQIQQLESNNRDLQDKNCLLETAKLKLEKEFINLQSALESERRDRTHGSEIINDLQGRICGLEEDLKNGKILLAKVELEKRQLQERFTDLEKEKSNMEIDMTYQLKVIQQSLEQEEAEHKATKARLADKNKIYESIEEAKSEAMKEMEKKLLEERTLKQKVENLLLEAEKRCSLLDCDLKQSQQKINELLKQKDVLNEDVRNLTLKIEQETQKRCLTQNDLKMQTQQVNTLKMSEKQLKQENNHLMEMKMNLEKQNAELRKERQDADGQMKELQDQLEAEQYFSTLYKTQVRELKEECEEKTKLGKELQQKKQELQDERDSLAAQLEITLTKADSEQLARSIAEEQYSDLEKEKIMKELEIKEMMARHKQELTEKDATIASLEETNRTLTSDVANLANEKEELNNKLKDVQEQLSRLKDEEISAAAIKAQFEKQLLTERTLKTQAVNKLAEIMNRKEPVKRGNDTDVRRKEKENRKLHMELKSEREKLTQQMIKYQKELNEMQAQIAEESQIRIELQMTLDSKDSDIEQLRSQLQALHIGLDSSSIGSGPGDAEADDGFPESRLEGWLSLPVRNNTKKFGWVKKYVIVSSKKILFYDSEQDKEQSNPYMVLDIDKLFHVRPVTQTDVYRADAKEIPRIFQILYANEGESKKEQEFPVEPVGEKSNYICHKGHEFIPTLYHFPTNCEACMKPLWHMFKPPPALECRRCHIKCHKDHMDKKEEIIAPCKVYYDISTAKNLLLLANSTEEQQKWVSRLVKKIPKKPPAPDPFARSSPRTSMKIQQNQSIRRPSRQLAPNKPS

What was measured:
WNK2 = WNK2 (Homo sapiens, UniProt Q9Y3S1); conditions: 1 μM; Run 1, Run 2
PKCzeta = PKCzeta (Homo sapiens, UniProt Q05513); conditions: 1 μM; Run 1, Run 2
CK1a1L = CK1a1L (Homo sapiens, UniProt Q8N752); assay: biochemical; conditions: read-out: % enzyme activity, 1 μM; Run 1, Run 2
EPHB3 = EPHB3 (Homo sapiens, UniProt P54753); assay: biochemical; conditions: read-out: % enzyme activity, 1 μM; Run 1, Run 2
NIM1 = NIM1 (Homo sapiens, UniProt Q8IY84); assay: biochemical; conditions: read-out: % enzyme activity, 1 μM; Run 1, Run 2
NEK3 = NEK3 (Homo sapiens, UniProt P51956); assay: biochemical; conditions: read-out: % enzyme activity, 1 μM; Run 1, Run 2
FLT4/VEGFR3 = FLT4/VEGFR3 (Homo sapiens, UniProt P35916); assay: biochemical; conditions: read-out: % enzyme activity, 1 μM; Run 1, Run 2
MST3/STK24 = MST3/STK24 (Homo sapiens, UniProt Q9Y6E0); assay: biochemical; conditions: read-out: % enzyme activity, 1 μM; Run 1, Run 2
MYO3A = MYO3A (Homo sapiens, UniProt Q8NEV4); assay: biochemical; conditions: read-out: % enzyme activity, 1 μM; Run 1, Run 2
MAPKAPK2 = MAPKAPK2 (Homo sapiens, UniProt P49137); conditions: 1 μM; Run 1, Run 2
EPHA5 = EPHA5 (Homo sapiens, UniProt P54756); assay: biochemical; conditions: read-out: % enzyme activity, 1 μM; Run 1, Run 2
PIM2 = PIM2 (Homo sapiens, UniProt Q9P1W9); conditions: 1 μM; Run 1, Run 2
BLK = BLK (Homo sapiens, UniProt P51451); assay: biochemical; conditions: read-out: % enzyme activity, 1 μM; Run 1, Run 2
PKG2/PRKG2 [1] = target: T1, PKG2/PRKG2 (Homo sapiens, UniProt Q13237); conditions: 1 μM; Run 1, Run 2
MEK2 = MEK2 (Homo sapiens, UniProt P36507); conditions: 1 μM; Run 1, Run 2
CDK2/cyclin O = CDK2/cyclin O (Homo sapiens, UniProt P24941); assay: biochemical; conditions: read-out: % enzyme activity, 1 μM; Run 1, Run 2
AKT1 = AKT1 (Homo sapiens, UniProt P31749); conditions: 1 μM; Run 1, Run 2
STK21/CIT = STK21/CIT (Homo sapiens, UniProt O14578); assay: biochemical; conditions: read-out: % enzyme activity, 1 μM; Run 1, Run 2
MELK = MELK (Homo sapiens, UniProt Q14680); assay: biochemical; conditions: read-out: % enzyme activity, 1 μM; Run 1, Run 2
PKMYT1 = PKMYT1 (Homo sapiens, UniProt Q99640); assay: biochemical; conditions: read-out: % enzyme activity, 1 μM; Run 1, Run 2
PKG2/PRKG2 [2] = target: T1, PKG2/PRKG2; assay: biochemical; conditions: read-out: % enzyme activity, 1 μM; Run 1, Run 2
SRPK1 = SRPK1 (Homo sapiens, UniProt Q96SB4); conditions: 1 μM; Run 1, Run 2
FGFR1 = FGFR1 (Homo sapiens, UniProt P11362); assay: biochemical; conditions: read-out: % enzyme activity, 1 μM; Run 1, Run 2
MARK1 = MARK1 (Homo sapiens, UniProt Q9P0L2); conditions: 1 μM; Run 1, Run 2
LIMK1 = LIMK1 (Homo sapiens, UniProt P53667); assay: biochemical; conditions: read-out: % enzyme activity, 1 μM; Run 1, Run 2
PAK6 = PAK6 (Homo sapiens, UniProt Q9NQU5); conditions: 1 μM; Run 1, Run 2
STK32B/YANK2 = STK32B/YANK2 (Homo sapiens, UniProt Q9NY57); assay: biochemical; conditions: read-out: % enzyme activity, 1 μM; Run 1, Run 2
CAMKK1 = CAMKK1 (Homo sapiens, UniProt Q8N5S9); assay: biochemical; conditions: read-out: % enzyme activity, 1 μM; Run 1, Run 2
EPHA6 = EPHA6 (Homo sapiens, UniProt Q9UF33); assay: biochemical; conditions: read-out: % enzyme activity, 1 μM; Run 1, Run 2
EGFR = EGFR (Homo sapiens, UniProt P00533); assay: biochemical; conditions: read-out: % enzyme activity, 1 μM; Run 1, Run 2
ULK3 = ULK3 (Homo sapiens, UniProt Q6PHR2); assay: biochemical; conditions: read-out: % enzyme activity, 1 μM; Run 1, Run 2
NEK9 = NEK9 (Homo sapiens, UniProt Q8TD19); assay: biochemical; conditions: read-out: % enzyme activity, 1 μM; Run 1, Run 2
GSK3a = GSK3a (Homo sapiens, UniProt P49840); assay: biochemical; conditions: read-out: % enzyme activity, 1 μM; Run 1, Run 2
ROCK2 = ROCK2 (Homo sapiens, UniProt O75116); conditions: 1 μM; Run 1, Run 2
FAK/PTK2 = FAK/PTK2 (Homo sapiens, UniProt Q05397); conditions: 1 μM; Run 1, Run 2
PLK2 = PLK2 (Homo sapiens, UniProt Q9NYY3); assay: biochemical; conditions: read-out: % enzyme activity, 1 μM; Run 1, Run 2
MEK1 = MEK1 (Homo sapiens, UniProt Q02750); conditions: 1 μM; Run 1, Run 2
CDK17/cyclin Y (PCTK2) = CDK17/cyclin Y (PCTK2) (Homo sapiens, UniProt Q00537); conditions: 1 μM; Run 1, Run 2
DMPK2 = DMPK2 (Homo sapiens, UniProt Q6DT37); conditions: 1 μM; Run 1, Run 2
MLCK2/MYLK2 = MLCK2/MYLK2 (Homo sapiens, UniProt Q9H1R3); conditions: 1 μM; Run 1, Run 2
CHK2 = CHK2 (Homo sapiens, UniProt O96017); assay: biochemical; conditions: read-out: % enzyme activity, 1 μM; Run 1, Run 2
EPHB4 = EPHB4 (Homo sapiens, UniProt P54760); conditions: 1 μM; Run 1, Run 2
PYK2 = PYK2 (Homo sapiens, UniProt Q14289); conditions: 1 μM; Run 1, Run 2

**Q.** Which “% enzyme activity” value (WNK2) does the source give for `COc1cc(-c2cncc(-c3ccc(N4CCN(C(C)C)CC4)cc3)c2C)cc(F)c1C(N)=O` [Compound 26b, 2-Fluoro-4-(5-(4-(4-isopropylpiperazin-1-yl)phenyl)-4-methylpyridin-3-yl)-6-methoxybenzamide] here?
**A.** The value was 98.34%.

**Q.** And the “% enzyme activity” value (PKCzeta)?
**A.** The value was 91.33%.

**Q.** And the remaining activity at 1 µM (CK1a1L)?
**A.** Its remaining activity at 1 µM is 104%.

**Q.** What about the remaining activity at 1 µM (EPHB3) of the same compound?
**A.** Its remaining activity at 1 µM is 94.8%.

**Q.** And the remaining activity at 1 µM (NIM1)?
**A.** The remaining activity at 1 µM was 94.5%.

**Q.** What about the remaining activity at 1 µM (NEK3) of the same compound?
**A.** The remaining activity at 1 µM was 96.1%.

**Q.** What about the remaining activity at 1 µM (FLT4/VEGFR3) of the same compound?
**A.** Its remaining activity at 1 µM is 96.8%.

**Q.** What about the remaining activity at 1 µM (MST3/STK24) of the same compound?
**A.** The remaining activity at 1 µM was 113%.

**Q.** And the remaining activity at 1 µM (MYO3A)?
**A.** Its remaining activity at 1 µM is 99.4%.

**Q.** What about the “% enzyme activity” value (MAPKAPK2) of the same compound?
**A.** The value was 98.48%.

**Q.** And the remaining activity at 1 µM (EPHA5)?
**A.** Its remaining activity at 1 µM is 94.7%.

**Q.** What about the “% enzyme activity” value (PIM2) of the same compound?
**A.** The value was 96.36%.

**Q.** What about the remaining activity at 1 µM (BLK) of the same compound?
**A.** Its remaining activity at 1 µM is 101%.

**Q.** And the “% enzyme activity” value (PKG2/PRKG2 [1])?
**A.** Its value is 91.81%.

**Q.** And the “% enzyme activity” value (MEK2)?
**A.** The value was 89.42%.

**Q.** What about the remaining activity at 1 µM (CDK2/cyclin O) of the same compound?
**A.** The remaining activity at 1 µM was 92.3%.

**Q.** And the “% enzyme activity” value (AKT1)?
**A.** Its value is 99.01%.

**Q.** What about the remaining activity at 1 µM (STK21/CIT) of the same compound?
**A.** The remaining activity at 1 µM was 103%.

**Q.** And the remaining activity at 1 µM (MELK)?
**A.** Its remaining activity at 1 µM is 99.6%.

**Q.** What about the remaining activity at 1 µM (PKMYT1) of the same compound?
**A.** Its remaining activity at 1 µM is 125%.

**Q.** What about the remaining activity at 1 µM (PKG2/PRKG2 [2]) of the same compound?
**A.** Its remaining activity at 1 µM is 95.7%.

**Q.** And the “% enzyme activity” value (SRPK1)?
**A.** The value was 102.86%.

**Q.** And the remaining activity at 1 µM (FGFR1)?
**A.** Its remaining activity at 1 µM is 102%.

**Q.** What about the “% enzyme activity” value (MARK1) of the same compound?
**A.** Its value is 91.67%.

**Q.** What about the remaining activity at 1 µM (LIMK1) of the same compound?
**A.** Its remaining activity at 1 µM is 77.9%.

**Q.** And the “% enzyme activity” value (PAK6)?
**A.** The value was 98.70%.

**Q.** What about the remaining activity at 1 µM (STK32B/YANK2) of the same compound?
**A.** The remaining activity at 1 µM was 86.5%.

**Q.** What about the remaining activity at 1 µM (CAMKK1) of the same compound?
**A.** Its remaining activity at 1 µM is 92.7%.

**Q.** What about the remaining activity at 1 µM (EPHA6) of the same compound?
**A.** Its remaining activity at 1 µM is 103%.

**Q.** And the remaining activity at 1 µM (EGFR)?
**A.** The remaining activity at 1 µM was 101%.

**Q.** And the remaining activity at 1 µM (ULK3)?
**A.** Its remaining activity at 1 µM is 94.5%.

**Q.** What about the remaining activity at 1 µM (NEK9) of the same compound?
**A.** The remaining activity at 1 µM was 82.7%.

**Q.** What about the remaining activity at 1 µM (GSK3a) of the same compound?
**A.** The remaining activity at 1 µM was 103%.

**Q.** And the “% enzyme activity” value (ROCK2)?
**A.** Its value is 119.86%.

**Q.** And the “% enzyme activity” value (FAK/PTK2)?
**A.** Its value is 96.05%.

**Q.** What about the remaining activity at 1 µM (PLK2) of the same compound?
**A.** The remaining activity at 1 µM was 93.6%.

**Q.** What about the “% enzyme activity” value (MEK1) of the same compound?
**A.** Its value is 102.97%.

**Q.** What about the “% enzyme activity” value (CDK17/cyclin Y (PCTK2)) of the same compound?
**A.** The value was 93.99%.

**Q.** And the “% enzyme activity” value (DMPK2)?
**A.** The value was 85.28%.

**Q.** What about the “% enzyme activity” value (MLCK2/MYLK2) of the same compound?
**A.** Its value is 81.15%.

**Q.** And the remaining activity at 1 µM (CHK2)?
**A.** The remaining activity at 1 µM was 95.4%.

**Q.** And the “% enzyme activity” value (EPHB4)?
**A.** The value was 85.87%.

**Q.** And the “% enzyme activity” value (PYK2)?
**A.** The value was 81.78%.
